Hit rate of the full screen: of about 1,200 compounds, fewer than 10 were called active. Calls come from the whole dose curve; as a rule, active = well fitted curve in the direction sought with a large enough effect; inconclusive = small, poorly fitted or top-dose-only effect, or another doubt; inactive = no such curve, though single readings can be large or run the other way. The list shows a part of the results.

For 83 compounds, activity change, negative = inhibition results are on record in PubChem BioAssay AID1347431 (National Center for Advancing Translational Sciences (NCATS), 2020).

The test in a line: Confirmatory qHTS assay for inhibitors of Activation Induced Cytidine Deaminase (AID): UDG signals. Note: 0% is about no effect. As to conditions: UDG coupled enzyme activity counter-screen; at 115 µM (top of the series) unless noted. The procedure, abridged:
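UDG readout, a counterscreen: AID (1 uM, 4/3x) plus UDG (2 U/mL, 4/3x) preincubated 10 min with compound (7.32 nM - 114 uM final), then 4 h with DJC20/DJC23 substrates at room temperature; NaOH added, fluorescence read at 560/665 nm.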
`O=C(CSc1nc(-c2ccc(F)cc2)nc2c1Cc1ccccc1O2)Nc1cccc(C(=O)O)c1`: the activity change, negative = inhibition was inactive: 5.5%.

As to `Cc1ccc2c(c1)c(=O)c(C(=O)c1ccccc1)cn2Cc1ccccc1F`, the activity change, negative = inhibition is inactive: -2.73%.

For `Cc1ccc(C(C)C)c(OCC(=O)NCC2(N3CCOCC3)CCCCC2)c1`, the activity change, negative = inhibition was inactive: -2.06%.

For `CCOc1ccc(-c2n[nH]c3c2C(c2ccccc2OC)N(c2ccc(Br)cc2)C3=O)cc1` (stereo not drawn), the activity change, negative = inhibition was inactive: -1.1%.

Turning to `CCOC(=O)c1ccc(CSc2nnc3cc(C)c4ccccc4n23)cc1`, the activity change, negative = inhibition is inactive: 3.64%.

`Cc1ccccc1Nc1c(-c2ccc(N3CCOCC3)cc2)nc2ccccn12`: the activity change, negative = inhibition was inactive: -1.79%.

For the compound `CC(C)CCN(Cc1ccco1)C(=O)c1cc2c(s1)-c1ccccc1OC2`, the activity change, negative = inhibition was inactive: -3.35%.

Regarding `CCc1nn(C(C)C(=O)N2CCN(c3cccc(C(F)(F)F)c3)CC2)c(=O)c2cc3occc3n12` (stereo not drawn), the activity change, negative = inhibition is inactive: 0.752%.

Consider `Cc1ccc(-n2ncc(C(=O)NCCc3ccccc3)c2C2CCN(C(=O)OC(C)(C)C)CC2)c(C)c1`, for which the activity change, negative = inhibition is inactive: -6.03%.

As for `CCc1ccc2c(c1)c(=O)c(S(=O)(=O)c1ccc(Cl)cc1)cn2CC`, the activity change, negative = inhibition is inactive: -0.548%.

As for `Cc1cc2c(C(C)C)c(O)c(O)c(C=O)c2c(O)c1-c1c(C)cc2c(C(C)C)c(O)c(O)c(C=O)c2c1O`, the activity change, negative = inhibition was inactive: -7.01%.

For the compound `Cc1cc(C)c(OCC(=O)N(Cc2ccco2)Cc2ccco2)c(C)c1`, the activity change, negative = inhibition is inactive: 3.17%.

In the case of `CCOC(=O)C1=C(C)NC(=O)NC1c1cn(-c2ccccc2)nc1-c1ccc(OCC)cc1` (stereo not drawn), the activity change, negative = inhibition was inactive: -1.28%.

Turning to `Cc1ccc(S(=O)(=O)c2nnn3c2nc(N2CCC(C(N)=O)CC2)c2cc(Cl)ccc23)cc1C`, the activity change, negative = inhibition was inactive: -1.65%.

Turning to `CCCCC1CCC(CCCC(C)CCC(=O)O)CC1` (stereo not drawn), the activity change, negative = inhibition is inactive: -0.766%.

Regarding `COc1cc2c(=O)c(S(=O)(=O)c3ccc(C)cc3)cn(Cc3cccc(C)c3)c2cc1OC`, the activity change, negative = inhibition is inactive: -3.74%.

In the case of `CCOc1cccc(CNc2ccc(O)cc2)c1OCc1ccccc1Cl`, the activity change, negative = inhibition is inactive: -23.4%.

For the compound `CCOc1ccccc1NC(=O)C(C)Sc1nc(-c2ccccc2)c(C#N)c(=O)[nH]1` (stereo not drawn), the activity change, negative = inhibition was inactive: -7.83%.

Consider `Cc1ccccc1OCc1ccc(-c2nc(C#N)c(N3CCN(C)CC3)o2)o1`, for which the activity change, negative = inhibition was inactive: -0.767%.

As for `CCc1ccc(NC(=O)CSc2nccn2-c2cccc(C)c2C)cc1`, the activity change, negative = inhibition is inactive: -12.7%.

Turning to `O=C(Cc1ccc(F)cc1)N1CCC(c2nc3c(nnn3Cc3ccc(F)cc3)c(=O)[nH]2)CC1`, the activity change, negative = inhibition was inactive: 10.7%.

Consider `CCn1cc2nc(SCc3ccc(C)cc3)n(CCc3ccccc3)c(=O)c2n1`, for which the activity change, negative = inhibition is inactive: -9.35%.

Take `CCOC(=O)C1=C(C)NC(=O)NC1c1cn(-c2ccccc2)nc1-c1ccc(OC(C)C)cc1` (stereo not drawn): the activity change, negative = inhibition was inactive: -6.54%.

On to `O=C(CSc1nc(-c2cccs2)nc2cc(=O)[nH]n12)Nc1cccc(C(F)(F)F)c1`, for which the activity change, negative = inhibition was inactive: -2.26%.

Regarding `O=C(O)c1c(-c2ccccc2)oc2ccc(OCc3ccc(Cl)c(Cl)c3)cc12`, the activity change, negative = inhibition was inactive: 7.27%.

As for `CCCOc1ccc(-c2nn(-c3ccccc3)cc2C2NC(=O)NC(C)=C2C(=O)OC)cc1` (stereo not drawn), the activity change, negative = inhibition was inactive: -8%.

With `COc1ccc(C(=O)/C=C/c2cn(CC(O)CN(CC(C)C)CC(C)C)c3ccccc23)cc1` (stereo not drawn), the activity change, negative = inhibition was inactive: -10.6%.

Regarding `CC(NC(=O)c1nn(C)c2c1CSc1ccccc1-2)c1ccccc1` (stereo not drawn), the activity change, negative = inhibition is inactive: -3.98%.

Consider `O=C(c1cnc2cc(-c3ccccc3)nn2c1)c1cc([N+](=O)[O-])ccc1O`, for which the activity change, negative = inhibition was inactive: 6.4%.

For `COc1ccc(CCNC(=O)c2cc(Nc3cc(C)cc(C)c3)nc3ccccc23)cc1OC`, the activity change, negative = inhibition is inactive: -13.1%.

Turning to `CCCCOc1ccc(C(=O)N2CCC(c3nc4ccccc4o3)CC2)cc1`, the activity change, negative = inhibition is inactive: -7.07%.

As to `Cc1ccc(-c2nc(NC(=O)CSc3cc(C)c4ccccc4n3)ns2)cc1`, the activity change, negative = inhibition was inactive: -2.47%.

Consider `COc1ccccc1C(=O)NCCn1cc(SCC(=O)Nc2ccccc2F)c2ccccc21`, for which the activity change, negative = inhibition was inactive: -3.69%.

With `COc1ccc(C)cc1NC(=O)c1c(C)oc2ncn(CC(C)C)c(=O)c12`, the activity change, negative = inhibition was inactive: -5.34%.

In the case of `CCCn1cc(S(=O)(=O)c2ccccc2)c(=O)c2cc(F)c(N3CCCC(C)C3)cc21` (stereo not drawn), the activity change, negative = inhibition is inactive: 9.54%.

For `CCCCOc1ccc(C(=O)N2CC(=O)Nc3ccc(Br)cc3C2c2ccc(F)cc2)cc1` (stereo not drawn), the activity change, negative = inhibition was inactive: -9.19%.

For `CCCCOc1ccc(C(=O)Nc2ccc(S(=O)(=O)Nc3nc(C)cc(C)n3)cc2)cc1`, the activity change, negative = inhibition is inactive: 5.37%.

Regarding `CCc1nnc(SCc2cccc(F)c2)c2cc3sc(C)cc3n12`, the activity change, negative = inhibition is inactive: -2.57%.

Regarding `COc1ccc(-c2cn3cccnc3n2)cc1NC(=O)Nc1cc(C)ccc1C`, the activity change, negative = inhibition is inactive: 0.347%.

With `Cc1ccc(Cl)cc1N1CCN(C(=O)c2cc3ccc4cccnc4c3[nH]2)CC1`, the activity change, negative = inhibition is inactive: -10.4%.

In the case of `CC(C)(C)c1ccc(OCc2nc3ccccc3n2CCOc2ccccc2)cc1`, the activity change, negative = inhibition is inactive: -9.15%.

In the case of `CCOc1ccc(/C=C/c2nc(C#N)c(NCc3ccccc3)o2)cc1`, the activity change, negative = inhibition was inactive: 0.837%.

Turning to `COc1ccc(Nc2oc(-c3ccc(COc4ccccc4C)o3)nc2C#N)cc1`, the activity change, negative = inhibition is inactive: -0.444%.

Consider `CCc1ccc(C(=O)c2cn(Cc3ccc(F)cc3)c3cc(OC)c(OC)cc3c2=O)cc1`, for which the activity change, negative = inhibition was inactive: -8.29%.

`CCc1ccc(N(CC)C(=O)c2sc3nc4n(c(=O)c3c2C)CCCC4)cc1`: the activity change, negative = inhibition was inactive: -12.9%.

For the compound `Cc1ccc(CSc2cn(CCNC(=O)c3cccs3)c3ccccc23)cc1`, the activity change, negative = inhibition is inactive: -4.02%.

Regarding `COc1ccc(Nc2ncc(C(=O)N3CCN(c4ccccc4OC)CC3)c3ccccc23)cc1`, the activity change, negative = inhibition was inactive: -7.33%.

Regarding `CCn1cc2nc(SCc3cccc(C)c3)n(CCc3ccccc3)c(=O)c2n1`, the activity change, negative = inhibition was inactive: -0.312%.

On to `Cc1nc2nc(SCC(=O)NC3CCC(C)CC3)nn2c(C)c1Cc1ccccc1Cl` (stereo not drawn), for which the activity change, negative = inhibition is inactive: -0.294%.

For `CCC(NC(C)C)C(O)c1ccc(O)c(O)c1` (stereo not drawn), the activity change, negative = inhibition was inactive: -13.3%.

In the case of `COc1ccc(CNCCC(c2ccc3c(c2)OCO3)c2ccccc2OC)cc1` (stereo not drawn), the activity change, negative = inhibition is inactive: -4.11%.

With `COc1ccc(Cn2cc(C(=O)c3ccc(C)c(C)c3)c(=O)c3ccccc32)cc1`, the activity change, negative = inhibition is inactive: -4.47%.

Take `COc1ccc(CNC(=O)Nc2ccc3c(c2)N(C)C(=O)c2ccccc2S3)cc1OC`: the activity change, negative = inhibition is inactive: 1.85%.

On to `Cc1ccc(CNC(=O)c2c[nH]n3c(=O)c(Cc4ccc(Cl)cc4)c(C)nc23)cc1`, for which the activity change, negative = inhibition was inactive: -6.36%.

`CC(=O)c1cccc(NC(=O)CC(c2ccc(C)cc2)N2Cc3ccccc3C2=O)c1` (stereo not drawn): the activity change, negative = inhibition is inactive: 11.1%.

For `CCOc1ccc(-c2cc(C(=O)NCc3ccccc3Cl)c3ccccc3n2)cc1`, the activity change, negative = inhibition was inactive: -1.32%.

In the case of `CCn1cc2c(n1)-c1c(oc(C(=O)Nc3cccc(C)c3C)c1C)CC2`, the activity change, negative = inhibition was inactive: 1.8%.

As for `Cc1ccc(OCC(=O)Nc2cccc(OCc3cc(=O)n4cccc(C)c4n3)c2)cc1C`, the activity change, negative = inhibition was inactive: -13.9%.

Take `CCc1ccc(CN(Cc2ccco2)c2cnc(S(C)(=O)=O)nc2C(=O)Nc2ccc(C)c(Cl)c2)cc1`: the activity change, negative = inhibition was inactive: -3.03%.

For the compound `COc1ccc(-c2nc3ccccc3n2Cc2ccc(C(C)C)cc2)cc1`, the activity change, negative = inhibition was inactive: -2.72%.

Turning to `CCOc1cc(CNCCSc2nnnn2C)ccc1OCc1ccc(Cl)cc1Cl`, the activity change, negative = inhibition was inactive: -11%.

`CCCCN(C)CC(O)Cn1cc(/C=C/C(=O)c2ccc(OC)c(OC)c2)c2ccccc21` (stereo not drawn): the activity change, negative = inhibition is inactive: -8.09%.

Take `Cc1ccc(Cl)cc1N1CCN(C(=O)c2cccn2-c2nnc(N3CCCCC3)s2)CC1`: the activity change, negative = inhibition is inactive: -3.12%.

As to `COc1ccccc1OCCn1c(C(C)Oc2ccccc2)nc2ccccc21` (stereo not drawn), the activity change, negative = inhibition was inactive: -7.15%.

Turning to `Cc1cccc(-c2nnc(SCC(=O)N3CCCc4ccccc43)o2)c1`, the activity change, negative = inhibition was inactive: -1.78%.

Consider `CC(=O)c1ccc(C(=O)N(Cc2cccnc2)c2nc3c(Cl)cccc3s2)cc1`, for which the activity change, negative = inhibition is inactive: -1.39%.

Regarding `O=C(c1cccc(Cl)c1)N(Cc1ccco1)Cc1ccccc1Cl`, the activity change, negative = inhibition was inactive: -2.38%.

For the compound `O=C(O)c1ccc(Nc2nc(-c3ccccc3)c3cc(Br)ccc3n2)cc1`, the activity change, negative = inhibition is inactive: 1.94%.

Regarding `O=C(NCCn1cc(SCc2cccc(F)c2)c2ccccc21)c1cccc(C(F)(F)F)c1`, the activity change, negative = inhibition is inactive: -8.72%.

In the case of `Cc1ccc(N(Cc2cccs2)C(=O)c2ccccc2)cc1`, the activity change, negative = inhibition was inactive: -1.63%.

For `Cc1cccc(Cn2c(SCc3ccc(C(=O)N4CCC(C)CC4)cc3)nc3ccncc32)c1`, the activity change, negative = inhibition was inactive: -6.12%.

In the case of `COc1cccc(CNC(=O)c2oc3ccc4c(c3c2C)C(=O)CC(C)(C)O4)c1OC`, the activity change, negative = inhibition was inactive: 0.26%.

Turning to `CCOc1ccc(-c2nn(-c3ccccc3)cc2C2NC(=O)NC(C)=C2C(=O)OC(C)C)cc1C` (stereo not drawn), the activity change, negative = inhibition was inactive: -9.9%.

With `COc1ccc(NC(=O)C(c2ccc(C)cc2)N(C)C(=O)Cc2cccs2)cc1` (stereo not drawn), the activity change, negative = inhibition was inactive: -6.34%.

`CC(C)c1ccc(S(=O)(=O)c2cnc(SCC(=O)Nc3cccc(C(F)(F)F)c3)nc2N)cc1`: the activity change, negative = inhibition is inactive: -15.2%.

In the case of `CCOc1ccc(NC(=O)CSc2nccn2-c2cccc(C)c2C)cc1`, the activity change, negative = inhibition was inactive: -4.02%.

As for `Cc1ccc(Nc2nnc(-c3ccc(C)c(S(=O)(=O)N4CCN(C)CC4)c3)c3ccccc23)c(C)c1`, the activity change, negative = inhibition is inactive: -0.466%.

Regarding `Cc1ccc2nc(Cl)c3cc(C(=O)N4CCCC(C)C4)sc3c2c1` (stereo not drawn), the activity change, negative = inhibition is inactive: 4.71%.

In the case of `COc1cccc(CNC(=O)c2ccc3c(Cl)c4c(nc3c2)CCCC4)c1`, the activity change, negative = inhibition was inactive: -1.88%.

In the case of `Cc1cccc(N2CCN(C(=O)C3CCCN(C(=O)c4cc5sccc5n4C)C3)CC2)c1C` (stereo not drawn), the activity change, negative = inhibition was inactive: -8.06%.

In the case of `CCC1CCCCN1C(=O)CSc1nc(-c2ccc(OC)cc2)cc(C(F)(F)F)n1` (stereo not drawn), the activity change, negative = inhibition was inactive: -16.9%.

Turning to `Cc1cc2c(cc3c(SCc4ccc(Cl)cc4)nnc(C)n32)o1`, the activity change, negative = inhibition is inactive: -0.784%.

Take `CN(C(=O)c1ccc2c(c1)N(Cc1ccccc1F)C(=O)c1ccccc1S2)C1CCCCC1`: the activity change, negative = inhibition is inactive: -1.84%.
